Experimental data reported in the supplement of paper PMC12889115.
The other results are listed elsewhere or left out. Values are raw readings; no control value is given beside them.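 In the initial screen, polymyxin B was used at a concentration that permeabilizes Salmonella's outer membrane but not its inner membrane. Maximum growth was set by DMSO wells with or without polymyxin B. Since plates varied, data were ranked per plate, and compounds giving the lowest OD600 advanced as hits.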

Test system: Salmonella enterica serovar Typhimurium SL1344
Experiment: bacterial growth OD600 after 18 h with compound and polymyxin B; higher = more bacterial growth (less inhibition)
Conditions: 50 µM, Mueller-Hinton broth

| Structure (SMILES) | bacterial growth OD600 (polymyxin B 1 µg/mL) | bacterial growth OD600 (polymyxin B 0.75 µg/mL) |
| --- | --- | --- |
| O=C(CCC1CCCN(Cc2ccc(-n3cccn3)cc2)C1)NC1CC1 (stereo not given) | 0.953 |  |
| O=C(CCC(F)(F)F)N1CCOc2ccc(C(O)C(c3ccccc3)c3ccccc3)cc2C1 (stereo not given) |  | 0.601 |
| COCCC(=O)NC1CC(C)(C)Cc2nc(C(C)(C)C)ncc21 (stereo not given) | 0.88 |  |
| COc1ccc(CC(=O)NCC2CCCN(Cc3cccc(SC)c3)C2)cc1 (stereo not given) | 0.797 |  |
| O=C1CCC(CCC(=O)N2CCCC2c2ccc(F)cc2)(Cc2ccc3ccccc3c2)N1 (stereo not given) |  | 0.679 |
| O=C1CCCN1CC(=O)N1CCCC(CCc2ccccc2)C1 (stereo not given) |  | 0.622 |
| O=C(NCC1CC1)C1CCCN(C2CCN(Cc3ccccc3)CC2)C1 (stereo not given) |  | 0.897 |
| COc1cccc(-c2noc(-c3ccc(N4CCN(C(C)C)CC4)nc3)n2)c1OC |  | 0.511 |
| COc1ccc(CC(=O)N2CCC3(CCCN(CC(C)(C)C)C3=O)C2)cc1 (stereo not given) | 0.812 |  |
| O=C(NC1CC1)C1CCCN(C2CCN(C(=O)CCC3CCCC3)CC2)C1 (stereo not given) |  | 0.858 |
| COc1ccc(NC(=O)CCC2CCCN(C(=O)c3cc(C)[nH]n3)C2)cc1Cl (stereo not given) | 0.995 |  |
| CCOC(=O)C1(CCCc2ccccc2)CCN(C(=O)CCc2cnn(C)c2)CC1 | 0.873 |  |
| Cn1ccnc1CN1CCC(CCC(=O)Nc2ccccc2Cl)CC1 | 0.907 |  |
| O=C(CCn1cnnn1)N1CCCC(CCc2cccc(C(F)(F)F)c2)C1 (stereo not given) |  | 0.178 |
| O=C1CCCCN1CCCC(=O)N1CCCC(CCc2ccccc2)C1 (stereo not given) |  | 0.826 |
| CCCCN(Cc1ccccc1)C(=O)COc1ccc(N2CCN(c3ccccn3)CC2)nn1 |  | 0.014 |
| CCn1nc(C)cc1C(=O)N1CCC(CCC(=O)Nc2ccc3c(c2)OCCO3)CC1 | 0.919 |  |
| CN(Cc1cc(C2CC2)[nH]n1)c1ccc(-c2nc(C3CC3)no2)cn1 |  | 0.542 |
| COc1ccccc1C(=O)N1CCC2(CCCN(CC3CC3)C2=O)C1 (stereo not given) | 0.992 |  |
| COc1cc(CN2CCC3(CC2)CC3C(=O)N(C)CCOc2ccc(C)cc2)cc(OC)c1OC (stereo not given) |  | 1.06 |
| COCCNC(=O)c1ccc(OC2CCN(C/C=C/c3ccco3)CC2)c(Cl)c1 | 1.1 |  |
| C=C(C)CNC(=O)C1CCC(=O)N(C2CCCC2)C1 (stereo not given) | 0.966 |  |
| O=C(NCC1CCCN(Cc2ccc3c(c2)OCCO3)C1)c1cc2ccccc2[nH]1 (stereo not given) | 0.852 |  |
| CCn1nc(C)c(CN2CCC(CO)(Cc3cccc(C(F)(F)F)c3)CC2)c1C |  | 0.829 |
| COc1ccc(CC2(CCC(=O)N3CCN(c4cccc(C)c4C)CC3)CCC(=O)N2)c(F)c1 (stereo not given) |  | 0.012 |
| CCC1CN(Cc2ccc(F)c(OC)c2)Cc2cc(OC)ccc2O1 (stereo not given) |  | 0.712 |
| OC(CCc1ccccc1)c1ccc2c(c1)CN(Cc1cccc3cccnc13)CCO2 (stereo not given) |  | 0.611 |
| Cc1cc(C)n(CC(=O)N(Cc2ccncc2)Cc2cccc(OCCc3ccc(F)cc3)c2)n1 |  | 0.001 |
| COc1ccc(CCN2CC(NC(=O)CC(C)C)CC2=O)cc1 (stereo not given) | 0.895 |  |
| COc1ccc(S(=O)(=O)NCc2nc(NCCCc3ccccc3)c3ccccc3n2)cc1OC |  | 0.398 |

Quoted from the listing.
Value for O=C(NCC1CCCN(Cc2ccc3c(c2)OCCO3)C1)c1cc2ccccc2[nH]1 (stereo not given) under bacterial growth OD600 (polymyxin B 1 µg/mL): 0.852
Value for CCCCN(Cc1ccccc1)C(=O)COc1ccc(N2CCN(c3ccccn3)CC2)nn1 under bacterial growth OD600 (polymyxin B 0.75 µg/mL): 0.014
